This data set relates to wild-type SmDPP7. In words: Isothermal titration calorimetry of dipeptide binding. Set-up: species or system Stenotrophomonas maltophilia. The note with it: ITC, pH 7.0, 25 °C. Here is the method:
Figure 6 Thermodynamic parameters of dipeptide binding of SmDPP7. The value of thermodynamic parameters is represented in Table S3. The dissociation constant (Kd) and heats of binding (ΔH) were obtained using MICROCAL PEAQ-ITC Analysis software (Malvern, UK). Gibbs free energy (ΔG) and entropy energy (ΔS) were calculated according to the equation, ΔG = − RT ln Ka = RT ln Kd (Ka = 1/ Kd, association constants). Standard deviations were obtained from three independent experiments.
The bindings were analysed using a MICROCAL PEAQ-ITC microcalorimeter (Malvern, UK). The binding reactions were performed in 50 mM sodium phosphate pH 7.0 and 2.5% dimethyl sulfoxide at 25 °C and were stirred at 750 rpm. A single injection of 0.4 μl and 19 times injections of 2.0 μl of the dipeptide solution were injected into 350 μl of enzyme solution (wild-type SmDPP7). The wild-type SmDPP7 concentration was 25 µM and the concentration of each dipeptide solution was 250 µM in reaction buffer. Each injection was performed for 4 s with an interval of 150 s between injections. The dissociation constant (Kd) and heats of binding (ΔH) were obtained using MICROCAL PEAQ-ITC Analysis software (Malvern, UK). Gibbs free energy (ΔG) values were calculated according to ΔG = − RT ln Ka = RT ln Kd (Ka = 1/ Kd, association constants).

For the substance Tyr-Tyr, the ΔH is listed as -12.4 ± 0.3 kcal/mol. Besides, the “-TΔS” value (calculated) was 5.32 ± 0.34 kcal/mol. For the setting “ΔG = RT ln Kd”, the ΔG was -7.11 ± 0.04 kcal/mol.
